PubChem BioAssay AID1259299 – Sanger Institute | 2017
This is one part, drawn at random, of 794 deposited reagents. 9 of them (1.1%) were called active. 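Calls rest on knock-down alone; synergy scores play no part in calls, and no gene passed the synergy cut.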 A number with no mark means an inactive call. Further read-outs or replicates are left out here. Not stated in the record: the amount of reagent, the time to read-out.

- Test: 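Essential genes and drug-synergistic partners among kinases and colorectal mutation genes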 (primary screen)
- System: human CAR1 colorectal cancer cells
- Reagents: siRNA pool against human genes
- Challenge: anchor drug BYL719 1 µM, cetuximab 5 µg/ml or trametinib 10 nM, or DMSO vehicle alone; exposure length not given
- Detection: 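Cell viability as fraction of non-targeting siRNA wells, mean of replicates, with robust z-score and a synergy score for each of three drugs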
- Reading the numbers: viability robust z-score, knock-down alone: higher = more viable cells
- Active means: 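a gene is called essential if its knock-down-alone viability z-score drops under -3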
- Meaning of the calls: active = essential (knock-down alone); inactive = no change

Gene | viability robust z-score, knock-down alone
PRKG2 | 0.789
CDC7 | -0.981
SMAD4 | -0.357
AURKA | -3.65 (active)
MAP3K21 | 0.748
RPS6KC1 | 0.354
TGFBR2 | 0.789
GRK1 | 0.545
PTK6 | 0.789
RPS6KA3 | 0.789
ATM | 0.551
PRKCG | -0.124
PLK3 | 0.775
PIM2 | 0.437
ARAF | 0.789
GRK6 | 0.238
STK35 | -0.0851
LATS1 | 0.149
PIK3CG | -0.532
PTK2 | 0.643
RFK | -0.0107
NTRK1 | 0.234
MATK | 0.525
ALK | -0.0516
PKIA | 0.789
PFKL | 0.297
NME2 | 0.789
CTNNB1 | -0.56
RBM10 | 0.484
EXOSC10 | -1.08
PHKB | 0.789
RIPK1 | 0.587
NEK9 | 0.264
SIK2 | 0.789
CDK14 | -0.928
FN3K | -0.896
UCK1 | 0.768
CUL1 | 0.582
MPP2 | 0.789
AURKB | -2.87
MAPKAPK3 | -2.87
ULK2 | -0.117
ROR1 | 0.557
RTN4 | 0.789
LYN | 0.789
SGK2 | 0.789
PIP5KL1 | -0.00709
CDK17 | 0.789
CPNE3 | 0.195
FES | -0.00105

No new results follow: an excerpt of the list.
Gene | viability robust z-score, knock-down alone
PKIA | 0.789
PFKL | 0.297
NME2 | 0.789
CTNNB1 | -0.56
RBM10 | 0.484
